Patent publication US20240309104A1 (PROMETHEUS BIOSCIENCES, published 2024)
These are yes or no findings as the source states them, for the method shown. Some entries that bind do so weakly or less than the wild type.

Target: T1, DR3 receptor on human TF-1 cells (human) (UniProt Q93038)
T1 sequence (looked up): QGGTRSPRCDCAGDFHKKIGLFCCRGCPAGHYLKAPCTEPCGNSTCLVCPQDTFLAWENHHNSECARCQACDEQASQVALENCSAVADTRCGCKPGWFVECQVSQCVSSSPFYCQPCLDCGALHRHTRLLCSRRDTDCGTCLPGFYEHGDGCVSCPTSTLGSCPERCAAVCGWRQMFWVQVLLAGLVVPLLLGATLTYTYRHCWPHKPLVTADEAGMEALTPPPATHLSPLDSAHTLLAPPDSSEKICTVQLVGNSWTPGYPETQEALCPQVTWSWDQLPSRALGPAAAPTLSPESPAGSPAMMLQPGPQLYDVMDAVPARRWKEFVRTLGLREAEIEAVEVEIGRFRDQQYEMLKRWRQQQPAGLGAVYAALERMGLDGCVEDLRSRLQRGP
Assay: TF-1 cell caspase activation assay

binding: binds
B1: recombinant cynomolgus monkey TL1A protein (ligand)
chain: LKGQEFAPSHQQVYAPLRADGDKPRAHLTVVRQTPTQHLKNQFPALHWEHELGLAFTKNRMNYTNKFLLIPESGDYFVYSQVTFRGMTSECSEIRQAGRPNKPDSITVVITKVTDSYPEPTQLLMGTKSVCEVGSNWFQPIYLGAMFSLQEGDKLMVNVSDISLVDYTKEDKTFFGAFLL
